Some of the results follow. Shown are side measurements of this screen, not its main read-out; they come without a call. Compounds called inactive in the main read-out are mostly missing here. Potencies come from curve fits of mixed quality, noted in brackets.
Assay: qHTS Assay for Lipid Storage Modulators in Drosophila S3 Cells;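 as to cell number change: cells counted by Cell Tracker Red CMTPX staining in the red channel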
Conditions: BODIPY lipid droplet fluorescence, 18-24 h; for cell number change: measured here: cell count max response, cells fed with added oleic acid
Procedure, shortened: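 Drosophila S3 cells got compounds at several concentrations plus oleic acid (400 uM solution). Laser-scanning cytometry with 488 nm excitation read lipid droplets at 500-530 nm and cells at 575-640 nm. Percent activity was relative to 20 uM Triacsin C.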

[1] = measured here: cell number channel AC50, cells fed with added oleic acid
[2] = measured here: lipid fluorescence (Fed channel) AC50, cells fed with added oleic acid

SMILES | cell number change [%] | AC50 [1] | AC50 [2]
Cc1ccc(CNC(=O)COC(=O)c2ccc(S(=O)(=O)N(C)C)cc2)cc1 | 18.7 | 2.91 µM [rising, single point] | 2.06 µM [rising, single point]
Cc1onc(-c2ccccc2)c1C(=O)Nc1nc(-c2ccccc2)cs1 | 16.6 | – | –
Cc1ccc(CSc2ccc(-c3ccco3)nn2)cc1 | -7.22 | – | 0.82 µM [rising, single point]
Cc1cc(Cl)c(S(=O)(=O)NCc2cccnc2)cc1OCC(N)=O | – | 3.26 µM [rising, single point] | 4.11 µM [rising, partial curve]
N#C/C(C(=S)Nc1ccccc1)=C1/NN=C(N2CCOCC2)N1c1ccccc1 | 39.5 | 14.6 µM [rising, single point] | –
CC(C)(C#N)NC(=O)C1CCCN1S(=O)(=O)c1ccc2ccccc2c1 (stereo unspecified) | 15.1 | – | 6.51 µM [falling, single point]
CCN1C(=O)CC(n2c(C)nc3ccccc32)C1=O (stereo unspecified) | -12 | – | –
O=C(CCn1ccnc1)Nc1nc2ccccc2[nH]1 | – | 0.146 µM [rising, full curve, poor fit] | 0.517 µM [rising, single point]
Cc1ccc(C(=O)NCC(=O)OCc2csc(-c3ccccc3)n2)cc1 | -22.2 | 0.326 µM [falling, full curve, poor fit] | –
CCOC(=O)c1c(NC(=O)c2ccc(Br)o2)sc2c1CCCC2 | 9.03 | 0.58 µM [falling, full curve, poor fit] | 0.146 µM [rising, full curve, poor fit]
COc1ccc(C(=O)/C=C/c2ccc(OC)c(CN3CCOCC3)c2)cc1 | -25.7 | – | 20.6 µM [falling, single point]
O=S1(=O)Nc2c(ccc3cccnc23)-c2ccccc21 | -21.8 | – | 16.4 µM [falling, single point]
COc1ccc(-c2[nH]ncc2/C=N\NS(=O)(=O)c2ccccc2)cc1OC | 133 | – | –
Cc1ccc(-c2csc(-c3c[nH]c4ccccc34)n2)c(C)c1 | -37 | 13 µM [falling, partial curve] | 1.3 µM [rising, full curve]
COC(=O)c1ccc(OC(=O)c2ccc(OC)cc2)c(OC)c1 | 8.51 | – | –
CCCCN(NC(C)=O)c1nc(Cl)nc(NC(C)C)n1 | -0.804 | 0.0206 µM [falling, full curve, poor fit] | –
COc1ccc(-c2ccc3c(c2)S(=O)(=O)c2cccc(C(=O)NC4CC4)c2C3=O)cc1OC | -39.8 | 2.06 µM [falling, partial curve] | –
Cc1n[nH]c(=O)nc1NCC1CCCO1 (stereo unspecified) | -0.853 | – | –
C=CCn1c(=S)[nH]c2scc(-c3ccc(C)o3)c2c1=O | -7.08 | – | 0.116 µM [falling, full curve, poor fit]
O=C(O)c1ccccc1C(=O)NCCc1c(C(=O)O)[nH]c2ccc(Cl)cc12 | 15.7 | – | 0.82 µM [rising, full curve]
CCC(=O)Nc1nc(OC)cc(OC)n1 | 8.83 | – | 0.517 µM [falling, full curve, poor fit]
COc1ccc(CC(=O)Oc2ccc(F)cc2)cc1 | 6.88 | – | 0.092 µM [rising, full curve, poor fit]
Cc1ccc(S(=O)(=O)Nc2ccc3c(c2)CCC3)cc1 | -45.2 | 23.1 µM [falling, partial curve] | 25.9 µM [falling, partial curve]
COc1ccccc1NS(=O)(=O)c1ccc(O)c(C(=O)OCC(=O)c2ccc(Cl)cc2Cl)c1 | -1.89 | – | –
COc1ccc(CCNCC(=O)Nc2ccc(OC(F)F)cc2)cc1 | -3.17 | – | 29.1 µM [rising, single point]
COc1cc2[nH]c(=S)n(Cc3ccc(C)cc3)c(=O)c2cc1OC | -62.5 | 29.1 µM [falling, single point] | 23.1 µM [falling, single point]
Cc1nn(Cc2ccccc2Cl)c(C)c1C(=O)NCC(c1cccs1)N1CCOCC1 (stereo unspecified) | – | 3.66 µM [rising, partial curve] | –
COc1ccccc1NC(=S)N1CCN(c2ccccn2)CC1 | 9.51 | – | 0.411 µM [rising, full curve, poor fit]
O=C(O)C1CCC(Cn2c(SCc3cc(=O)n4cc(Br)ccc4n3)nc3ccsc3c2=O)CC1 (stereo unspecified) | -3.36 | – | 1.16 µM [rising, single point]

Reformatted with each value named: two of the compounds above.
COc1ccc(C(=O)/C=C/c2ccc(OC)c(CN3CCOCC3)c2)cc1
  cell number change [%]: -25.7; AC50 [2]: 20.6 µM [falling, single point]
O=S1(=O)Nc2c(ccc3cccnc23)-c2ccccc21
  cell number change [%]: -21.8; AC50 [2]: 16.4 µM [falling, single point]

Reference: PubChem BioAssay AID2685 (National Center for Advancing Translational Sciences (NCATS), 2010)
